Test results as given in paper doi:10.1101/2025.05.02.651162.
These are yes or no findings as the source states them, for the method shown. In cells and extracts the contact can be indirect.

Amino acid sequences for entries named in this document (tags omitted).
UniProt P13864: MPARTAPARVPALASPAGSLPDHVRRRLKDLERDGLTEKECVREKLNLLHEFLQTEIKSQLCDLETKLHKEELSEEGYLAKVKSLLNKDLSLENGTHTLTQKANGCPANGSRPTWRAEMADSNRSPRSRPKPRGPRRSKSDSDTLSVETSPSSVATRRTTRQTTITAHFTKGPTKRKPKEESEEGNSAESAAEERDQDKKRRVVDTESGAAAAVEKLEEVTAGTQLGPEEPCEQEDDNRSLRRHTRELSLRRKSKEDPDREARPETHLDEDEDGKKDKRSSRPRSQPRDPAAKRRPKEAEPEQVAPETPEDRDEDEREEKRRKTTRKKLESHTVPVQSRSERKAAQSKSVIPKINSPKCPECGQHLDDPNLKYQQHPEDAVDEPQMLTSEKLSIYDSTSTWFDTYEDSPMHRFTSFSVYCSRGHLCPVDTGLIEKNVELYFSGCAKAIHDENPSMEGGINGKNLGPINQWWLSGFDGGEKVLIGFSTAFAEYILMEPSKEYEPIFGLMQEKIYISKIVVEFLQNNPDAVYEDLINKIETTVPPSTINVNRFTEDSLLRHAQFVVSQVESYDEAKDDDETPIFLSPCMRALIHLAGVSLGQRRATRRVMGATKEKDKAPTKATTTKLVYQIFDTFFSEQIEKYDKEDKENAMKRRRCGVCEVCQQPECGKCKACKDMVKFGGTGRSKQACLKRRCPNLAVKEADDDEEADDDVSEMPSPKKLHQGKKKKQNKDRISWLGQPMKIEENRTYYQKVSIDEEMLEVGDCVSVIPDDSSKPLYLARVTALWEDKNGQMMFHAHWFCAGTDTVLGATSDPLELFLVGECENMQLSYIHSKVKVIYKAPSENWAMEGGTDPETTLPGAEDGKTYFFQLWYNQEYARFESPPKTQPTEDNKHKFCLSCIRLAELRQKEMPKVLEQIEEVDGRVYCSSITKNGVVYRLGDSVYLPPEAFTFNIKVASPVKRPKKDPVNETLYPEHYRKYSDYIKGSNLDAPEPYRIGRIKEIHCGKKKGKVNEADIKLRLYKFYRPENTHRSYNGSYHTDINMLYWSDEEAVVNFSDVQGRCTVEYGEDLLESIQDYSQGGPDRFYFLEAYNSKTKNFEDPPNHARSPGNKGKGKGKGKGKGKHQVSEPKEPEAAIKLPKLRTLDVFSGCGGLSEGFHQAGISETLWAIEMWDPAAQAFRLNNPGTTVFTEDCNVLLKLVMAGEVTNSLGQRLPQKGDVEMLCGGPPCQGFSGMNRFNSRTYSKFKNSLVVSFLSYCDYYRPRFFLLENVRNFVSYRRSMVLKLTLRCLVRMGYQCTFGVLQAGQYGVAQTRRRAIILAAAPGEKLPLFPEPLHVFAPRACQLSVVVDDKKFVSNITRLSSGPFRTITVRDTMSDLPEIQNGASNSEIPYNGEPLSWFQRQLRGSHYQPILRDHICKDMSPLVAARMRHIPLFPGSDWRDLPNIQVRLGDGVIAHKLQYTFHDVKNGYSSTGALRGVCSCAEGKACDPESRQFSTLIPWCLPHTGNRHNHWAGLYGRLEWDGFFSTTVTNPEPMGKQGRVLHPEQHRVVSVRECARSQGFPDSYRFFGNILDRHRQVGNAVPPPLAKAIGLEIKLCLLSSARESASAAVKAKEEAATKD
UniProt Q9WVE0: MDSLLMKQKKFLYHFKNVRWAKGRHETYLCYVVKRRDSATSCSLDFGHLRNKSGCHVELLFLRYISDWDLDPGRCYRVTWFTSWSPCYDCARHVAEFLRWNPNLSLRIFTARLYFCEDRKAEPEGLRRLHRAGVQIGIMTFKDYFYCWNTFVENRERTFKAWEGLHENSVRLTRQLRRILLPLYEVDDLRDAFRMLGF

Biological target: DNA methyltransferase DNMT1 (mouse (endogenous in iGB cells from mouse splenic B cells)) (UniProt P13864)
Assay: co-IP

## Activation-induced cytidine deaminase (AID), wildtype (from UniProt Q9WVE0 1-198)
  binding: no binding
